The target in experiment [1] is T1, Pol3, catalytic subunit of budding yeast DNA polymerase δ (wildtype) (budding yeast) (UniProt P15436).
T1 sequence: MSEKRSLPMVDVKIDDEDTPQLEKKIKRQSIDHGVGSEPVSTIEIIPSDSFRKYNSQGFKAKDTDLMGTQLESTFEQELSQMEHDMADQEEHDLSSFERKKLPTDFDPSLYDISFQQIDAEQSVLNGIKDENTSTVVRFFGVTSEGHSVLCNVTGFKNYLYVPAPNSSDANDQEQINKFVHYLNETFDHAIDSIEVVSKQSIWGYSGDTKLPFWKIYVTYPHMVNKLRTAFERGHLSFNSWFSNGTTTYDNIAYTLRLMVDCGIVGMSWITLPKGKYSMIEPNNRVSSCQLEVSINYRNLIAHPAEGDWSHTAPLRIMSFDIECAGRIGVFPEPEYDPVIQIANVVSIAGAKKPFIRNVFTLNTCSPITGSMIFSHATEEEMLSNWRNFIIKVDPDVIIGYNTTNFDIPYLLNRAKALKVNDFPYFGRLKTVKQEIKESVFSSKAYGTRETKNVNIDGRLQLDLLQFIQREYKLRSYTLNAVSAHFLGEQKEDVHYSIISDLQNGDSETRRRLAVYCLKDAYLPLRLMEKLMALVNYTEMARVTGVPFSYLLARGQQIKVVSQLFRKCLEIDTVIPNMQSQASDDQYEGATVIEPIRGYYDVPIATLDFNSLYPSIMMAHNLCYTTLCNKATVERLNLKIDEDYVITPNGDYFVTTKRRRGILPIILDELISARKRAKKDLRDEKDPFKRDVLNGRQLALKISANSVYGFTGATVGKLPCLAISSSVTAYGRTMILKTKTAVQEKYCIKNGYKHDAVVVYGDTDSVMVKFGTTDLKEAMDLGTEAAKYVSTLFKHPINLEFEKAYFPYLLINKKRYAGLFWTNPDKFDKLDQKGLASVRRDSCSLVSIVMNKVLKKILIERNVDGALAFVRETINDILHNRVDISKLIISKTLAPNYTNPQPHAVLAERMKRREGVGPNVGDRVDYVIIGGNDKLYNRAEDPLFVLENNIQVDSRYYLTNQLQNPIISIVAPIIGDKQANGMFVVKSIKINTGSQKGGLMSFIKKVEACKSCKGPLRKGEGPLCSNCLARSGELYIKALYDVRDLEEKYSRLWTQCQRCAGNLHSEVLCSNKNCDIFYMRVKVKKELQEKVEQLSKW
Put plainly: co-purification.

Protein sequences, listed by entry. Tags and fused reporters are not part of them. Lines headed by an entry give the natural chain unless they say otherwise; changes in a name come on top.
UniProt P47110: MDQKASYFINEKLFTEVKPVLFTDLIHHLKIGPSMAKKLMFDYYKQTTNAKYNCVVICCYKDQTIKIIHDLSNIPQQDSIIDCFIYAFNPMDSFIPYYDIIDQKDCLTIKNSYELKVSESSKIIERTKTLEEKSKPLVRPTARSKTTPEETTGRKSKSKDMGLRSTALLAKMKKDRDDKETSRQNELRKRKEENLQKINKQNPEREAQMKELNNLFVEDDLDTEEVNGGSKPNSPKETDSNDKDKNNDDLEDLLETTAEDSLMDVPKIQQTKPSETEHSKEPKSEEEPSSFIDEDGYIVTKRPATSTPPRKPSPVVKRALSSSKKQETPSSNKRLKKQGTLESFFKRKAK

Experiment [2] deals with T2, Pol3 D941Y, catalytic subunit of budding yeast DNA polymerase δ (budding yeast) (UniProt P15436).
T2 sequence: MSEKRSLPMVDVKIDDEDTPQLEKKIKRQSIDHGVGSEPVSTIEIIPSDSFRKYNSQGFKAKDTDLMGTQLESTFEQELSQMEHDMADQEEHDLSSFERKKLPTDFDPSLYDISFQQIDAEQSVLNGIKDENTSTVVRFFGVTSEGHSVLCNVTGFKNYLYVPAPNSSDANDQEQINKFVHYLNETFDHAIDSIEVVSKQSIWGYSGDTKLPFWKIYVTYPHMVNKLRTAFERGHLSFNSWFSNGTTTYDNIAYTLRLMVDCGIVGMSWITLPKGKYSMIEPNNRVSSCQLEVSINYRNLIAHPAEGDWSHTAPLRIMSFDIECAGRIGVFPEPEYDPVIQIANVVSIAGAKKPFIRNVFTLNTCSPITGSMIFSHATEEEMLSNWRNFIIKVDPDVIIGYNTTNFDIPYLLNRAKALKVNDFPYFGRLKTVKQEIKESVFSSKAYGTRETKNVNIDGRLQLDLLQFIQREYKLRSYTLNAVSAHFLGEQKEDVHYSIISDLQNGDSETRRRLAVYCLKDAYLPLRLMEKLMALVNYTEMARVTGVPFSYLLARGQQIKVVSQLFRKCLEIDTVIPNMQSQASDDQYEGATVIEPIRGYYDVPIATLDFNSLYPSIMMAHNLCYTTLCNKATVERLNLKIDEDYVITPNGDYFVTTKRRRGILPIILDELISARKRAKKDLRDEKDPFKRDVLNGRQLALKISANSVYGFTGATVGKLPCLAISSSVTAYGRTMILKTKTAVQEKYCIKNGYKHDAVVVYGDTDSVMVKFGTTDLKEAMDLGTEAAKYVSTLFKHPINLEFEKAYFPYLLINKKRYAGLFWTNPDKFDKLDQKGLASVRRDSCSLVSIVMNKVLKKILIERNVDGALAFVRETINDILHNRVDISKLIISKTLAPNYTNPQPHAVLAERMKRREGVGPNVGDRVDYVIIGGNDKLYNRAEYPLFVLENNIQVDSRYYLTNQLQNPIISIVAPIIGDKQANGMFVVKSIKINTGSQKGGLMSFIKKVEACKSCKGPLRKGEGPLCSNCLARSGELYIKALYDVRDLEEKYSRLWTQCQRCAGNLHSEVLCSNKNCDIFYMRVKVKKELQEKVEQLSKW
The experiment is described as follows: co-purification.

These results are taken from doi:10.1101/2022.03.07.483315.

These are yes or no findings as the source states them, for the method shown. Some binding calls cover weakened binding; strength is not graded here.

As to “Pol32, subunit of budding yeast DNA polymerase δ (from UniProt P47110 1-350)”, the binding result in experiment [1] and in experiment [2] was “binds” throughout.

B1: Pol31, subunit of budding yeast DNA polymerase δ (protein, UniProt P46957 1-487)
chain: MDALLTKFNEDRSLQDENLSQPRTRVRIVDDNLYNKSNPFQLCYKKRDYGSQYYHIYQYRLKTFRERVLKECDKRWDAGFTLNGQLVLKKDKVLDIQGNQPCWCVGSIYCEMKYKPNVLDEVINDTYGAPDLTKSYTDKEGGSDEIMLEDESGRVLLVGDFIRSTPFITGVVVGILGMEAEAGTFQVLDICYPTPLPQNPFPAPIATCPTRGKIALVSGLNLNNTSPDRLLRLEILREFLMGRINNKIDDISLIGRLLICGNSVDFDIKSVNKDELMISLTEFSKFLHNILPSISVDIMPGTNDPSDKSLPQQPFHKSLFDKSLESYFNGSNKEILNLVTNPYEFSYNGVDVLAVSGKNINDICKYVIPSNDNGESENKVEEGESNDFKDDIEHRLDLMECTMKWQNIAPTAPDTLWCYPYTDKDPFVLDKWPHVYIVANQPYFGTRVVEIGGKNIKIISVPEFSSTGMIILLDLETLEAETVKIDI
With B1, the binding result in experiment [1] and in experiment [2] was “binds” throughout.
